Results: patent US10040836B2, “Peptides for the treatment of neurodegenerative diseases” (Ramot at Tel-Aviv University Ltd., priority 2012, dated 2018)
Part of at least one peptide drawing is inferred or uncertain, most often the ends. Where no end group is shown, it is not given here.

Experiments:
[1] = target: T1, caspase-3 (Homo sapiens, UniProt P42574); assay: Fluorescent caspase-3 inhibition assay (caspase-3 inhibitor drug detection kit); assay type: biochemical
T1 construct: purchased Abcam
T1 sequence (P42574 29-277): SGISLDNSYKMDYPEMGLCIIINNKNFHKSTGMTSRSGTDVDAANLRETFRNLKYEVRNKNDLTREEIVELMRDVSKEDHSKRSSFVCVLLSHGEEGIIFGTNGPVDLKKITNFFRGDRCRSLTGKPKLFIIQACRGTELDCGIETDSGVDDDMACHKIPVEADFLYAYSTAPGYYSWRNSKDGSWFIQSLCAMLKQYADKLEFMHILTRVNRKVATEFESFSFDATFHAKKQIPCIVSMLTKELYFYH

[2] = system: SH-SY5Y cells; assay: Glutamate toxicity: Annexin V PI apoptosis and Alamar blue viability; assay type: cell-based, Human
[3] = system: Inducible 145Q-mHtt expressing PC12 cells; assay: Mutant Huntingtin induced toxicity: Alamar blue viability and LDH release; assay type: cell-based; conditions: PC12 145Q mHtt induced by 25 μM PA, serum deprivation, 25 μM ED11, 48 and 72 hours
[4] = target: T2, caspase-6 (Rattus norvegicus, UniProt O35397); assay: In-cell FLICA caspase-6 activity assay after mHtt induction; assay type: cell-based; conditions: PC12 145Q mHtt induced by PA, 25 μM ED11
T2 construct: endogenous in cells; host or cells: PC12 (inducible 145Q-mHtt, from CHDI/Coriell)
T2 sequence (O35397 6-277): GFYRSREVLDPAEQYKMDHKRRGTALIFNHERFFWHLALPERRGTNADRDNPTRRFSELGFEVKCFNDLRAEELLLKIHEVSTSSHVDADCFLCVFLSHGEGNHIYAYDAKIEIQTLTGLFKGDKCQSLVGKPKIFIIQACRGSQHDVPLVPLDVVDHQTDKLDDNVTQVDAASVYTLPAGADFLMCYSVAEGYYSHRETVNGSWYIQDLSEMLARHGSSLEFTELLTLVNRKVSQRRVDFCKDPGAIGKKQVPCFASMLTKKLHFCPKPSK

[5] = target: T3, caspase-6 (Homo sapiens, UniProt P55212); assay: Caspase-6 cleavage of mHtt in BACHD striatum extracts, western blot; assay type: biochemical; conditions: 100 U/ml caspase-6, 20 minutes at 37° C., 50 μM ED11
T3 construct: purified active human caspase-6
T3 sequence (P55212 24-179 limits assumed): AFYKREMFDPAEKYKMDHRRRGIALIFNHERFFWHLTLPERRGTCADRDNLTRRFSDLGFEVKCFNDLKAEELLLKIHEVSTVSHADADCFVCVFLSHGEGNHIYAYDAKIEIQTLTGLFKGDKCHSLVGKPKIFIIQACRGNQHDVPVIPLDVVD
T3 sequence (P55212 194-293 limits assumed): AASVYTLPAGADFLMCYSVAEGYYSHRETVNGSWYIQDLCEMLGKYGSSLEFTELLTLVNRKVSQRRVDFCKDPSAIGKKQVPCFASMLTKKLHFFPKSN

[6] = system: BACHD mice; assay: Accelerating Rotarod test in HD mouse model; assay type: in vivo; conditions: 4 mg/kg/day subcutaneous mini-pump for 28 days, tested at 9 weeks
[7] = target: T4, caspase-6 (Homo sapiens, UniProt P55212); assay: In-cell FLICA caspase-6 activity assay after glutamate exposure; assay type: cell-based; parameters: endogenous caspase-6 activity; endogenous in cells; host or cells: SH-SY5Y; conditions: SH-SY5Y, ED11 25 μM, 17 mM glutamate
T4 sequence (P55212 24-293): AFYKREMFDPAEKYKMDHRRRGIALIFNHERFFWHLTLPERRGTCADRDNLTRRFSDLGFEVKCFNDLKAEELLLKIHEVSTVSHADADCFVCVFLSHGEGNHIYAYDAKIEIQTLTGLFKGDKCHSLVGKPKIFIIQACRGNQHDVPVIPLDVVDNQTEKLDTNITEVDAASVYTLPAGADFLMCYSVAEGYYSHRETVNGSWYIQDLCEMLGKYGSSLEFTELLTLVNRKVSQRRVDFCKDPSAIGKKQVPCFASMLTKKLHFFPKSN

## GRKKRRQRRRPPQSSEIVLDGTDN [ED11]
[1]; fluorescent caspase-3 inhibition assay
  caspase-3 inhibition: does not inhibit caspase-3
[1]; purified caspase-3/caspase-6 assay, FIGS. 1E-1F
  caspase-3 activity, specificity experiment: not caspase-3
[2]; ED11 25 μM, 17 mM glutamate
  apoptosis caused by glutamate (Annexin V PI): protected the cells from apoptosis
[2]; glutamate 16 hours
  cell viability after glutamate insult (Alamar blue): protects cell viability from glutamate insult
[3]
  cell death measured by LDH release: highly attenuated
  cell viability under mHtt toxicity (Alamar blue): protects cell viability from mHtt toxicity
[4]
  in-cell caspase-6 activity initiated by mHtt (FLICA): inhibits in-cell caspase-6 activity initiated by mHtt
[5]
  human mHtt fragmentation by caspase-6: significantly inhibited human mHtt fragmentation
[6]
  motor deterioration, accelerating Rotarod test: effective at protect the BACHD mice from motor deterioration
[7]
  endogenous caspase-6 activity induced by glutamate: significantly inhibited endogenous caspase-6 activity
